Measurements from the supplement of paper PMC10849652.
This is one part of the list.

Chains of the proteins cited; added tags and fusions are not shown. Lines headed by an entry give the natural chain unless they say otherwise; changes in a name come on top.
UniProt P46199: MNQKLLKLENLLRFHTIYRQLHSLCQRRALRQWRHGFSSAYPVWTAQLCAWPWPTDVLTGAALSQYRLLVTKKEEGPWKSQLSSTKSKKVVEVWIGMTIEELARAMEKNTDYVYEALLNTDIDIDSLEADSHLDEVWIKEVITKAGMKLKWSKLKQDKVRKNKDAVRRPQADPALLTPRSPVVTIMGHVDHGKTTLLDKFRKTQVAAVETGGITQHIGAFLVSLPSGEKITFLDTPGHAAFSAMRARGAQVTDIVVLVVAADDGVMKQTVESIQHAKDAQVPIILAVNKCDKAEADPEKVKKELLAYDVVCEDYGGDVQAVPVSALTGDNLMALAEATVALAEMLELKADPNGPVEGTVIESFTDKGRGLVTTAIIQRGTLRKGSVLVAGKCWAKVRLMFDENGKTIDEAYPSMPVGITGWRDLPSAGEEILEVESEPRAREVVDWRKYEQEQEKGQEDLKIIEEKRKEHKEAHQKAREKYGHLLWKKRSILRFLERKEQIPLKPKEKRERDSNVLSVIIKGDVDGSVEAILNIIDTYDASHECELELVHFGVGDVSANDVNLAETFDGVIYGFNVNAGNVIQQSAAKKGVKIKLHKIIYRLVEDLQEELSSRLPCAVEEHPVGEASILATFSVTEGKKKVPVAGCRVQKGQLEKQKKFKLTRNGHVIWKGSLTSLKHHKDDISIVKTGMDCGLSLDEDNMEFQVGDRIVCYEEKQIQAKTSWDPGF
UniProt Q9HD23: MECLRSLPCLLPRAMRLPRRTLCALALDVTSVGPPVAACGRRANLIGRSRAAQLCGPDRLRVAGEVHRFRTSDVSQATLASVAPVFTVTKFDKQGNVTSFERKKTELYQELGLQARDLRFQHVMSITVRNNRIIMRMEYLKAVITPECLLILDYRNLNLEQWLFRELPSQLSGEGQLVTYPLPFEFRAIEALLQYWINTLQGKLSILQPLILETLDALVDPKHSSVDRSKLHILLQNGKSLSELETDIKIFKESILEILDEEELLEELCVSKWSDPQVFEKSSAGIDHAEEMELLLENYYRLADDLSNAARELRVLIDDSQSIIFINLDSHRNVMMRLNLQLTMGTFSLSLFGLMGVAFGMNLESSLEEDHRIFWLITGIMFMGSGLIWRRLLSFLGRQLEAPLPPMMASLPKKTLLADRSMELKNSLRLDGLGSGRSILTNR
UniProt P03886, whole entry, looked up: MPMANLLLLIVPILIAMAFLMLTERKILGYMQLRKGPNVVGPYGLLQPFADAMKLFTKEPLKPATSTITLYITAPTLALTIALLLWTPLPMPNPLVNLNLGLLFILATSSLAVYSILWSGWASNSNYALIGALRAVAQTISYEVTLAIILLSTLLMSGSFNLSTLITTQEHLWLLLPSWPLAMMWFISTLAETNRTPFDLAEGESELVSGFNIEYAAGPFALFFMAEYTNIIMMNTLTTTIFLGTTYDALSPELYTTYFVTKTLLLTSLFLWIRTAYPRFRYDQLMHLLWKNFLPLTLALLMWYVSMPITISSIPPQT
UniProt P52701: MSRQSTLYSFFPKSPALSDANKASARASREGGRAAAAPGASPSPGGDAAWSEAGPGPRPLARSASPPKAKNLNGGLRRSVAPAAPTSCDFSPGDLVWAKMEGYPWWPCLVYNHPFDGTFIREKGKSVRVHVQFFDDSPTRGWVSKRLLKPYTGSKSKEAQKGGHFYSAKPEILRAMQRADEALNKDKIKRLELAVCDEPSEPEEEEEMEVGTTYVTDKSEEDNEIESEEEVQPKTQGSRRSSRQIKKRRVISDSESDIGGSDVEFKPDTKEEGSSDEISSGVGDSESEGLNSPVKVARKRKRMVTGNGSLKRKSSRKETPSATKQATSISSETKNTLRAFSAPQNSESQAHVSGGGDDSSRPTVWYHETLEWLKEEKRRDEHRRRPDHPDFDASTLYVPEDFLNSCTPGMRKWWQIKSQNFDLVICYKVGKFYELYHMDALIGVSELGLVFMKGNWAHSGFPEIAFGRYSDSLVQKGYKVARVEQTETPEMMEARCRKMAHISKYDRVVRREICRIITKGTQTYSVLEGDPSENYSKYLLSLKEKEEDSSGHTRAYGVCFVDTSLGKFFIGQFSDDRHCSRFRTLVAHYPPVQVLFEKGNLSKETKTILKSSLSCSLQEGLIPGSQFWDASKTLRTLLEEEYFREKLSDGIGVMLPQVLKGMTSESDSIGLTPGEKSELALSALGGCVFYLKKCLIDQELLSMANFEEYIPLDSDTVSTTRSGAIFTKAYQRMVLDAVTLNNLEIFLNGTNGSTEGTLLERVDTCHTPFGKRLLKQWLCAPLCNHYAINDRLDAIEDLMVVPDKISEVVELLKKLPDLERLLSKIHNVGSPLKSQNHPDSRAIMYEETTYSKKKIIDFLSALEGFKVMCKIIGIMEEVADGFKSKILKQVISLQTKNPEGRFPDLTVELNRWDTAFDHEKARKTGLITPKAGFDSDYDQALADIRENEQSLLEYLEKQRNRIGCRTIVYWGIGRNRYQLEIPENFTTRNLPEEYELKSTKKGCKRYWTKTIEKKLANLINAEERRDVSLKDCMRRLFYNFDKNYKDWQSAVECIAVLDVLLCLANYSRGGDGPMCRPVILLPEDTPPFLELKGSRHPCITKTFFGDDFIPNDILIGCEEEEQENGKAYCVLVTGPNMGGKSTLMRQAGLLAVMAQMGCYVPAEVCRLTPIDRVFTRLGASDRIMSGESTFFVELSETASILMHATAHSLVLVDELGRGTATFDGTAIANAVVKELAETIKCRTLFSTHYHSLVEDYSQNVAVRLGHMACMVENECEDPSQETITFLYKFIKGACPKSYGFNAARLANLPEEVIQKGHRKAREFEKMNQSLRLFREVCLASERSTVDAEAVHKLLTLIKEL
UniProt Q9Y3D2: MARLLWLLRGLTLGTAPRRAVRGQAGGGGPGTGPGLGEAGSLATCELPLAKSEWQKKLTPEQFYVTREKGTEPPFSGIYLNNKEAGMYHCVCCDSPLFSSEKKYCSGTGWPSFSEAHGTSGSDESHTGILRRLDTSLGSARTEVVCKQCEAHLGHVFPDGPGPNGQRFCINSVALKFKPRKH
UniProt Q13330: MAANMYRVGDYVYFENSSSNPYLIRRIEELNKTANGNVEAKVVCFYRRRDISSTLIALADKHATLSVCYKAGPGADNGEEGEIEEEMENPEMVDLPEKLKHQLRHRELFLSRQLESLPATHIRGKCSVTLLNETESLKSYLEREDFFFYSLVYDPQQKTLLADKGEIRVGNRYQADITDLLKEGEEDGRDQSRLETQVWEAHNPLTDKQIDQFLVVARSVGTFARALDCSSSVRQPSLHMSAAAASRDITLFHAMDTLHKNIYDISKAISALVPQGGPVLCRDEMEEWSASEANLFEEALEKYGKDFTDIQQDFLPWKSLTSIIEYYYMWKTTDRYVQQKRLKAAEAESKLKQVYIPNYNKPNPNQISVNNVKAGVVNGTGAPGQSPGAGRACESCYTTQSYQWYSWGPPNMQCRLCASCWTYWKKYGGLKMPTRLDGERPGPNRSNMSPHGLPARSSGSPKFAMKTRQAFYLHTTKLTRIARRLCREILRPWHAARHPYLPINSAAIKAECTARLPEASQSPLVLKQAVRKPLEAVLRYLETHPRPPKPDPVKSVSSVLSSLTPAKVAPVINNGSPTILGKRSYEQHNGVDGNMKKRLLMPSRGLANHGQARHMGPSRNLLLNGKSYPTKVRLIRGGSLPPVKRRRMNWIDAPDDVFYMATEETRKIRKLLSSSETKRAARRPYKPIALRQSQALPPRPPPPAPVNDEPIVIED
UniProt Q96DH6: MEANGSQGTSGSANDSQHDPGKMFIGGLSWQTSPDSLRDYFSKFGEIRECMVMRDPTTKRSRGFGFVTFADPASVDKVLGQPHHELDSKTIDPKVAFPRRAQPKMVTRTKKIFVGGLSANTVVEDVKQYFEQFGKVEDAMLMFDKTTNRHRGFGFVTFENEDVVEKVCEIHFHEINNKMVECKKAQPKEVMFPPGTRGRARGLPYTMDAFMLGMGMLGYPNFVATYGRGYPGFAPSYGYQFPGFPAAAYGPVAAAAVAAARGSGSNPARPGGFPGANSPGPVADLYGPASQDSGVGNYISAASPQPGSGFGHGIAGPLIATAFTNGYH
UniProt P82909: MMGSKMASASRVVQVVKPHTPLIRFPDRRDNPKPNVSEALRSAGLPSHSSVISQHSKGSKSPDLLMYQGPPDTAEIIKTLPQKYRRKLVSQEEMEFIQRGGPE
UniProt P26038, whole entry, looked up: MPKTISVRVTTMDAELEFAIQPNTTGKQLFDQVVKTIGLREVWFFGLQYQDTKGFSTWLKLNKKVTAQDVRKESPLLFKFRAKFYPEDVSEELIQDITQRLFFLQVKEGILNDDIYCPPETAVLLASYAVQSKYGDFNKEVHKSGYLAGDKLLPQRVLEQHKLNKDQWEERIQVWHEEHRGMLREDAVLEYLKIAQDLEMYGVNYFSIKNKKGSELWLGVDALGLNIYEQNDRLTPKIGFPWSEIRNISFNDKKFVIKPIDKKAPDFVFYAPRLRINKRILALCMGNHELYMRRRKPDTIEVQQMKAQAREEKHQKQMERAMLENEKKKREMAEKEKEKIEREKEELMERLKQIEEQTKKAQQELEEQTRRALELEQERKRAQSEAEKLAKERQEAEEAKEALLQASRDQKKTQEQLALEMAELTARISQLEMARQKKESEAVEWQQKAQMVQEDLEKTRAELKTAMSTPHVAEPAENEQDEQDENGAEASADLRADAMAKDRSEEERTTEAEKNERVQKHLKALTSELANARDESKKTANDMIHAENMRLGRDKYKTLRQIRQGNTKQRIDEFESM
UniProt Q99707: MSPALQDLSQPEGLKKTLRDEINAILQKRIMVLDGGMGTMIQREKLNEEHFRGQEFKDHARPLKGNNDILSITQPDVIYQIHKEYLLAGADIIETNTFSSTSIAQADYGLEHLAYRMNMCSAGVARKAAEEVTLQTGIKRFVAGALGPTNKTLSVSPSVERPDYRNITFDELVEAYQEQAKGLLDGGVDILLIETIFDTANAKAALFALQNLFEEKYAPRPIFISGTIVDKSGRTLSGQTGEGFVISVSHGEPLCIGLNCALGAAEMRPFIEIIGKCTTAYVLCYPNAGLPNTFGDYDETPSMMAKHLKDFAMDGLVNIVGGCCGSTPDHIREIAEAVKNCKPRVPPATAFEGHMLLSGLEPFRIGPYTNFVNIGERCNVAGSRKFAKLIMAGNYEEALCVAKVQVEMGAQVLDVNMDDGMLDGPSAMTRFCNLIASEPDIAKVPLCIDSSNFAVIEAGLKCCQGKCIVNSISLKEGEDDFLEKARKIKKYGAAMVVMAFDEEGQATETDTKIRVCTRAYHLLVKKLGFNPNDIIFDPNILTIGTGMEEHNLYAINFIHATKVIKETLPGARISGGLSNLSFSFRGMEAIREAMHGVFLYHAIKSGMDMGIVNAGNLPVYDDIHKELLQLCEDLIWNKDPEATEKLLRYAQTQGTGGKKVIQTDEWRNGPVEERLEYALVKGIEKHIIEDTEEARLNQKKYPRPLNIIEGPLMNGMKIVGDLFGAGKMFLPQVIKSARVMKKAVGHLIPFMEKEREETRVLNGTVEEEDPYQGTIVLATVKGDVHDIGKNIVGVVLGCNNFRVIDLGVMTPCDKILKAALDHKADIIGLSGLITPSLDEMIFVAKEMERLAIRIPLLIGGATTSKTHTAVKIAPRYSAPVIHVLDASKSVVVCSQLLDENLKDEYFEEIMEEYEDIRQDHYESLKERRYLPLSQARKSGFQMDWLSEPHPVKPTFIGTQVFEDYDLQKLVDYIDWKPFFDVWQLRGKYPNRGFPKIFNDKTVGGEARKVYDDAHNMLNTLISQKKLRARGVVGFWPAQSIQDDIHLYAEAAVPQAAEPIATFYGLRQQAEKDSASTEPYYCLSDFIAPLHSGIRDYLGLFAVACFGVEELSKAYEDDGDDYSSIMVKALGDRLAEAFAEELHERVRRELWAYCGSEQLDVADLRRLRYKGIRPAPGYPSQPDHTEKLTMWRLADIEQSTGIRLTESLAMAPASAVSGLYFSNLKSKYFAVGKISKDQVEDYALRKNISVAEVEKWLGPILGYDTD
UniProt Q9NZJ7, whole entry, looked up: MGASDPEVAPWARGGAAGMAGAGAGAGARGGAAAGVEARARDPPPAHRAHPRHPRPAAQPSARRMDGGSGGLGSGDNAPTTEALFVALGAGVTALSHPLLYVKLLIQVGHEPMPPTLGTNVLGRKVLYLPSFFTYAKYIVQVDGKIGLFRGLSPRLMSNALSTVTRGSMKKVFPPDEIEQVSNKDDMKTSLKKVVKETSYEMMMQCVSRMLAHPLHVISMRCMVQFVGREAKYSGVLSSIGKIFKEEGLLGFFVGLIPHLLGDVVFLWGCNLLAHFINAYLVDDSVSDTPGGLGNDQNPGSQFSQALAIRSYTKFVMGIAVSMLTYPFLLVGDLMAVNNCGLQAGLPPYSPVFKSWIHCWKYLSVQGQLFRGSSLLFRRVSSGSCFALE

Compound: Cc1ccc(-n2nc(C(C)(C)C)cc2NC(=O)Nc2ccc(OCCN3CCOCC3)c3ccccc23)cc1 [doramapimod]
Test: log2 fold change, soluble protein after heating vs DMSO (PISA); higher = thermal stabilisation; K562 lysate, 10 uM; active = over 0.2 and 3.5 SD of the protein, either way, in both replicates (recomputed)
Summary of the method: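 Thermal stability, expressed as log-two fold change relative to solvent controls, is given from duplicates. Crude K562 extract in PBS pH 7.4 with 1 mM MgCl2, at 1 mg/mL protein, was treated with 10 μM compound for 30 min and heated in aliquots for 3 min across 48°C-58°C. After pooling, adjustment to 0.5% NP-40 at 4°C and centrifugation at 21,000xg for 90 min, supernatant protein was measured by TMTpro 16plex LC-MS/MS with channel sums equalised.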

Target | log2 fold change
MRPL4 (UniProt Q9BYD3) | inactive: -0.01
MRPS9 (UniProt P82933) | inactive: 0.016
MTMR9 (UniProt Q96QG7) | inactive: 0.132
MRPL28 (UniProt Q13084) | inactive: -0.012
MRPL41 (UniProt Q8IXM3) | inactive: 0.013
MRPS22 (UniProt P82650) | inactive: 0.072
MRPL45 (UniProt Q9BRJ2) | inactive: -0.025
MRPS18A isoform 2 (UniProt Q9NVS2) | inactive: -0.005
MRPL50 (UniProt Q8N5N7) | inactive: 0.004
MTIF2 (UniProt P46199) | inactive: 0.022
MRS2 (UniProt Q9HD23) | inactive: -0.001
MT-ND1 (UniProt P03886) | inactive: 0.041
MRPS30 (UniProt Q9NP92) | inactive: -0.009
MTM1 (UniProt Q13496) | inactive: -0.064
MRPS18B (UniProt Q9Y676) | inactive: 0.039
MRPL32 (UniProt Q9BYC8) | inactive: -0.025
MRPS5 (UniProt P82675) | inactive: 0.046
MSH6 (UniProt P52701) | inactive: 0.037
MSRB2 (UniProt Q9Y3D2) | inactive: 0.022
MTA1 (UniProt Q13330) | inactive: -0.009

Given with tabs: entries from further up.
Target	log2 fold change
MRPL41 (UniProt Q8IXM3)	inactive: 0.013
MRPS22 (UniProt P82650)	inactive: 0.072

More records.

Target | log2 fold change
MSI2 (UniProt Q96DH6) | active: -0.23
MRPL9 (UniProt Q9BYD2) | inactive: 0.026
MRPS10 (UniProt P82664) | inactive: -0.016
MRPS36 (UniProt P82909) | inactive: 0.048
MSN (UniProt P26038) | inactive: -0.021
MRPS28 (UniProt Q9Y2Q9) | inactive: -0.059
MTR (UniProt Q99707) | inactive: -0.004
MTHFD2 (UniProt P13995) | inactive: 0.022
MRPS31 (UniProt Q92665) | inactive: 0.047
MTFR2 (UniProt Q6P444) | inactive: 0.015
MRPL40 (UniProt Q9NQ50) | inactive: -0.023
MRPL54 (UniProt Q6P161) | inactive: 0.026
MRPL44 (UniProt Q9H9J2) | inactive: 0.008
MT-ATP6 (UniProt P00846) | inactive: 0.008
MT-CO1 (UniProt P00395) | inactive: -0.07
MRPL58 (UniProt Q14197) | inactive: -0.026
MTA2 (UniProt O94776) | inactive: 0.031
MTCH1 (UniProt Q9NZJ7) | inactive: -0.001
MTX1 (UniProt Q13505) | inactive: -0.006
